Experimental data: article PMC8552907

The chains behind the UniProt entries cited, without tags or fusion partners. Where a name states a change or a piece, a line headed by the entry shows the natural chain unless it says otherwise.
UniProt Q13838: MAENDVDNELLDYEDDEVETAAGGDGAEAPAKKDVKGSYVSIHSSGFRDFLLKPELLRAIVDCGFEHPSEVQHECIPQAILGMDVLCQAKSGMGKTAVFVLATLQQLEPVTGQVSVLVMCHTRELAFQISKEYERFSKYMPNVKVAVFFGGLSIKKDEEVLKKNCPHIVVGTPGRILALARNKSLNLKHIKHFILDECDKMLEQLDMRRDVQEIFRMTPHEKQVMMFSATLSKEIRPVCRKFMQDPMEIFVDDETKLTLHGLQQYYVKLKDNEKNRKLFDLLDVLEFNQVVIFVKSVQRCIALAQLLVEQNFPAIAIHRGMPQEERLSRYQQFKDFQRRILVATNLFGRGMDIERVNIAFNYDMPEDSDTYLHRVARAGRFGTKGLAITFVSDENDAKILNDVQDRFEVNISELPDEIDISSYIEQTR
UniProt P07711: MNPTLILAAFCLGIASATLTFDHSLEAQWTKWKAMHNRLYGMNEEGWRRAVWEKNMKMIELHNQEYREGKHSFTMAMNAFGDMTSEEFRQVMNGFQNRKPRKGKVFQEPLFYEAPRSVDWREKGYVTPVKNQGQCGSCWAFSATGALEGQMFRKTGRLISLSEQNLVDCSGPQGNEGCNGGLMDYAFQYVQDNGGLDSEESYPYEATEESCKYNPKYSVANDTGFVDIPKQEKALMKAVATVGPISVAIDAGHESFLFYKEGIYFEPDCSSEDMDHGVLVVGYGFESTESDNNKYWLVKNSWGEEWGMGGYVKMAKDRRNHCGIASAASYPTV

Target: Strep-HA-tagged DDX39B (human) (UniProt Q13838)
Assay: co-IP

Substance: V5-tagged CTSL (from UniProt P07711) (enzyme)
- binding: binds

Results are given in words; binding and its absence hold for the method and conditions named. Binding seen in cells or lysates may run through a third protein. Binding calls can cover weak binding; strength is not graded here.
